Like-named read-outs stand apart in the source and are kept apart here. Some results were stated once for a whole list of compounds, not compound by compound.
What was measured:
Type in all cases: in vivo
Phytophthora infestans [1] = settings: tomato (variety: Patio) seedlings, 500 ppm, sprayed on leaves and stems before inoculation, visual assessment after 1 + 4 days
Phytophthora infestans [2] = settings: tomato (variety: Patio) seedlings, 200 ppm, sprayed on leaves and stems before inoculation, visual assessment after 1 + 4 days
Phytophthora infestans [3] = settings: tomato (variety: Patio) seedlings, 200 ppm, irrigation treatment 20 ml per pot, inoculation 7 days later, visual assessment after 1 + 4 days

| Compound | lesion areas as compared with the lesion areas in seedlings without the treatment (Phytophthora infestans [1]) | lesion areas as compared with the lesion areas in seedlings without treatment (Phytophthora infestans [2]) | lesion areas as compared with the lesion areas in seedlings without treatment (Phytophthora infestans [3]) |
| --- | --- | --- | --- |
| C#CCOc1c(F)cc(C(=O)N[C@@H](C)C(C)(C)C)cc1OC [compound 45, N-((1S)-1,2,2-trimethylpropyl)-3-fluoro-5-methoxy-4-(2-propynyloxy)benzamide] | ≤ 30% | ≤ 30% | ≤ 30% |
| C#CCOc1c(F)cc(C(=O)NC(C)(C)C(C)C)cc1OC [compound 46, N-(1,1,2-trimethylpropyl)-3-fluoro-5-methoxy-4-(2-propynyloxy)benzamide] | ≤ 30% | ≤ 30% | ≤ 30% |
| C#CCOc1c(OC)cc(C(=O)NC(C)C(C)C)cc1OC (stereo not drawn) [compound 10, N-(1,2-diemthylpropyl)-3,5-dimethoxy-4-(2-propynyloxy)benzamide] | ≤ 30% | ≤ 30% | ≤ 30% |
| C#CCOc1ccc(C(=O)NCC(C)C)cc1OC [compound 3, N-(i-butyl)-4-(2-propynyloxy)-3-methoxybenzamide] | ≤ 30% | ≤ 30% |  |
| C#CCOc1c(F)cc(C(=O)NC(CC)CC)cc1F [compound 48, N-(1-ethylpropyl)-3,5-difluoro-4-(2-propynyloxy)benzamide] |  |  | ≤ 30% |
| C#CCOc1c(F)cc(C(=O)N[C@@H](C)C(C)(C)C)cc1F [compound 41, N-((1S)-1,2,2-trimethylpropyl)-3,5-difluoro-4-(2-propynyloxy)benzamide] |  | ≤ 30% | ≤ 30% |
| C#CCOc1ccc(C(=O)NCC(C)CC)cc1OC (stereo not drawn) [compound 5, N-(2-methylbutyl)-4-(2-propynyloxy)-3-methoxybenzamide] | ≤ 30% | ≤ 30% |  |
| C#CCOc1c(OC)cc(C(=O)NC(C)C(C)CC)cc1OC (stereo not drawn) [compound 22, N-(1,2-dimethylbutyl)-4-(2-propynyloxy)-3,5-dimethoxybenzamide] | ≤ 30% | ≤ 30% | ≤ 30% |
| C#CCOc1c(F)cc(C(=O)NCC(C)(C)C)cc1F [compound 50, N-(2,2-dimethylpropyl)-3,5-difluoro-4-(2-propynyloxy)benzamide] | ≤ 30% |  |  |
| C#CCOc1c(OC)cc(C(=O)NC(C)(C)C(C)C)cc1OC [compound 32, N-(1,1,2-trimethylpropyl)-3,5-dimethoxy-4-(2-propynyloxy)benzamide] | ≤ 30% |  | ≤ 30% |
| C#CCOc1ccc(C(=O)NC(C)CC)cc1OC (stereo not drawn) [compound 7, N-(1-methylpropyl)-4-(2-propynyloxy)-3-methoxybenzamide] | ≤ 30% | ≤ 30% |  |
| C#CCOc1c(F)cc(C(=O)NC(C)(C)C(C)C)cc1F [compound 40, N-(1,1,2-trimethylpropyl)-3,5-difluoro-4-(2-propynyloxy)benzamide] | ≤ 30% | ≤ 30% |  |
| C#CCOc1ccc(C(=O)NCC(C)C)cc1F [compound 37, N-(2-methylpropyl)-3-fluoro-4-(2-propynyloxy)benzamide] |  | ≤ 30% |  |
| C#CCOc1ccc(C(=O)NC(CC)CC)cc1OC [compound 36, N-(1-ethylpropyl)-3-methoxy-4-(2-propynyloxy)benzamide] | ≤ 30% |  | ≤ 30% |
| C#CCOc1c(OC)cc(C(=O)N[C@@H](C)C(C)C)cc1OC [compound 30, N-((1S)-1,2-dimethylpropyl)-3,5-dimethoxy-4-(2-propynyloxy)benzamide] |  | ≤ 30% | ≤ 30% |
| C#CCOc1c(F)cc(C(=O)NC(C)C(C)C)cc1F (stereo not drawn) [compound 39, N-(1,2-dimemthylpropyl)-3,5-difluoro-4-(2-propynyloxy)benzamide] |  | ≤ 30% | ≤ 30% |
| C#CCOc1ccc(C(=O)NC(C)(C#N)C(C)C)cc1OC (stereo not drawn) [compound 12, N-(1-cyano-1,2-dimethylpropyl)-4-(2-propynyloxy)-3-methoxybenzamide] | ≤ 30% | ≤ 30% |  |
| C#CCOc1c(F)cc(C(=O)N[C@@H](C)C(C)C)cc1F [compound 38, N-((1S)-1,2-dimemthylpropyl)-3,5-difluoro-4-(2-propynyloxy)benzamide] |  |  | ≤ 30% |
| C#CCOc1ccc(C(=O)NC(C)(C)CC)cc1OC [compound 2, N-(1,1-diemthylpropyl)-4-(2-propynyloxy)-3-methoxybenzamide] | ≤ 30% | ≤ 30% |  |

| Compound | lesion areas as compared with the lesion areas in seedlings without the treatment (Phytophthora infestans [1]) | lesion areas as compared with the lesion areas in seedlings without treatment (Phytophthora infestans [2]) | lesion areas as compared with the lesion areas in seedlings without treatment (Phytophthora infestans [3]) |
| --- | --- | --- | --- |
| C#CCOc1ccc(C(=O)NC(C)(C#N)C(C)C)cc1F (stereo not drawn) [compound 27, N-(1-cyano-1,2-dimethylpropyl)-3-fluoro-4-(2-propynyloxy)benzamide] | ≤ 30% |  |  |
| C#CCOc1ccc(C(=O)NC(C)C)cc1OC [compound 29, N-(1-methylethyl)-3-methoxy-4-(2-propynyloxy)benzamide] | ≤ 30% |  |  |
| C#CCOc1ccc(C(=O)NC(C)CCC)cc1OC (stereo not drawn) [compound 55, N-(1-methylbutyl)-3-methoxy-4-(2-propynyloxy)benzamide] | ≤ 30% |  |  |
| C#CCOc1ccc(C(=O)N[C@@H](C)C(C)C)cc1F [compound 31, N-((1S)-1,2-dimethylpropyl)-3-fluoro-4-(2-propynyloxy)benzamide] |  | ≤ 30% |  |
| C#CCOc1ccc(C(=O)NC(C)(C)C(C)C)cc1F [compound 33, N-(1,1,2-trimethylpropyl)-3-fluoro-4-(2-propynyloxy)benzamide] |  | ≤ 30% |  |
| C#CCOc1c(F)cc(C(=O)NC(C)C(C)C)cc1OC (stereo not drawn) [compound 43, N-(1,2-dimemthylpropyl)-3-fluoro-5-methoxy-4-(2-propynyloxy)benzamide] |  | ≤ 30% | ≤ 30% |
| C#CCOc1ccc(C(=O)NC(C)C(C)CC)cc1F (stereo not drawn) [compound 26, N-(1,2-dimethylbutyl)-3-fluoro-4-(2-propynyloxy)benzamide] | ≤ 30% | ≤ 30% |  |
| C#CCOc1ccc(C(=O)NC(C)C(C)C)cc1F (stereo not drawn) [compound 23, N-(1,2-diemthylpropyl)-3-fluoro-4-(2-propynyloxy)benzamide] |  | ≤ 30% | ≤ 30% |
| C#CCOc1ccc(C(=O)NCC(C)(C)C)cc1OC [compound 1, N-(2,2-diemthylpropyl)-4-(2-propynyloxy)-3-methoxybenzamide] | ≤ 30% | ≤ 30% |  |
| C#CCOc1c(F)cc(C(=O)NCC(C)C)cc1F [compound 42, N-(2-methylpropyl)-3,5-difluoro-4-(2-propynyloxy)benzamide] |  | ≤ 30% | ≤ 30% |
| C#CCOc1ccc(C(=O)NCC(C)CCC)cc1OC (stereo not drawn) [compound 6, N-(2-methylpentyl)-4-(2-propynyloxy)-3-methoxybenzamide] | ≤ 30% |  |  |
| C#CCOc1c(OC)cc(C(=O)NC(C)(C#N)C(C)C)cc1OC (stereo not drawn) [compound 19, N-(1-cyano-1,2-dimethylpropyl)-4-(2-propynyloxy)-3,5-dimethoxybenzamide] |  | ≤ 30% | ≤ 30% |
| C#CCOc1ccc(C(=O)NCC(CC)CC)cc1OC [compound 4, N-(2-ethylbutyl)-4-(2-propynyloxy)-3-methoxybenzamide] | ≤ 30% |  |  |
| C#CCOc1c(OC)cc(C(=O)NC(C)CCC)cc1OC (stereo not drawn) [compound 56, N-(1-methylbutyl)-3,5-dimethoxy-4-(2-propynyloxy)benzamide] | ≤ 30% |  |  |
| C#CCOc1c(OC)cc(C(=O)NCC(C)C)cc1OC [compound 21, N-(2-methylpropyl)-4-(2-propynyloxy)-3,5-dimethoxybenzamide] | ≤ 30% |  | ≤ 30% |
| C#CCOc1ccc(C(=O)N[C@H](C)C(C)(C)C)cc1OC [compound 17, N-((1R)-1,2,2-trimethylpropyl)-4-(2-propynyloxy)-3-methoxybenzamide] |  |  | ≤ 30% |
| C#CCOc1c(F)cc(C(=O)NC(C)C(C)C)cc1OC (stereo in doubt) [compound 49, N-((1S)-1,2-dimethylpropyl)-3-fluoro-5-methoxy-4-(2-propynyloxy)benzamide] |  |  | ≤ 30% |
| C#CCOc1ccc(C(=O)NCC(C)(C)C)cc1F [compound 24, N-(2,2-dimethylpropyl)-3-fluoro-4-(2-propynyloxy)benzamide] | ≤ 30% |  |  |

From US7714168B2 (priority 2005, dated 2010)
